These results are taken from patent US5783179A (Syntex (U.S.A.) Inc., priority 1991, dated 1998).

Strings that start with PEPTIDE1 are HELM notation: dots part the residues, brackets hold end groups and non-standard residues.

A short description of this series: general procedure: Boc solid-phase peptide synthesis; Boc-Leu-O-resin; N,N'-diisopropylcarbodiimide (DIC). The following applies: whole synthesis, analytical HPLC (UV monitor), scale 1.0 mmol.

For the substance “PEPTIDE1{I.Y.L.G.G.P.F.S.P.N.V.L}$$$$V2.0”, the “final HPLC purity” value is listed as >95%.
